Results from PubChem BioAssay AID202 (DTP/NCI, 2004).
The list does not hold the whole screen: its compounds were picked by chemical class. Other doses and runs of a compound may be missing. T/C: endpoint of the treated group in % of that of the vehicle group. Schedules are NCI's codes, taken here to give the interval after Q, in days (D) or hours (H), and the number of doses after X. Some T/C values are followed by the survivors on the day toxicity was checked; without a count or a note in brackets, all were alive then. Some entries give survivors of the animals treated and no T/C: the source files T/C as zero there, which appears to mark a toxic dose or a test without result, not a measured value. Counts of survivors are from the toxicity check, whose day is not always given; animals may have died later.

System: HT29 xenograft, nude mice, s.c., tumor weight T/C%
Experiment: NCI In Vivo Anticancer Drug Screen. Data for tumor model HT29;CX-1 Human Adenocarcinoma (MER+) (subcutaneous) in NU/NU Swiss (nude) mice
Settings: T/C endpoint: optimum tumor weight change, schedule: Q04DX003 (ip), higher T/C = larger tumour; for T/C: evaluated on day 34
Procedure: The antitumor activity of compounds was measured in mice bearing transplantable tumors. Survival or tumor size were measured and the results are expressed as the measurement made in the treated group (T) divided by the measurement made in the vehicle treated control group (C). The tumor model used in this assay is HT29;CX-1 Human Adenocarcinoma (MER+) (subcutaneous) in NU/NU Swiss (nude) mice

SMILES | T/C (dose: 12.5 mg/kg/injection, vehicle: saline with Tween-80) | T/C (dose: 25.0 mg/kg/injection, vehicle: saline with Tween-80) | T/C (dose: 50.0 mg/kg/injection, vehicle: saline with Tween-80) | T/C (dose: 100.0 mg/kg/injection, vehicle: saline with Tween-80) | T/C (dose: 50.0 mg/kg/injection, vehicle: suspension in saline) | T/C (dose: 100.0 mg/kg/injection, vehicle: suspension in saline) | T/C (dose: 200.0 mg/kg/injection, vehicle: suspension in saline) | survivor count (dose: 400.0 mg/kg/injection, vehicle: suspension in saline)
Nc1cc([As]=O)ccc1O (stereo not drawn) | 115 % of control | 104 % of control | 95 % of control | 97 % of control |  |  |  | 
CC1(C)CN1P(=O)(Nc1ncccn1)N1CC1(C)C (stereo not drawn) |  |  |  |  | 51 % of control | 38 % of control [4 of 5 alive on day 36] | 54 % of control | 3 of 5 on day 36
